From patent US9617263B2, “Phenyl-triazolo-pyridine compounds” (Eli Lilly and Company, priority 2014, dated 2017)
Some results were stated once for a whole list of compounds, not compound by compound.

The chains behind the UniProt entries cited, without tags or fusion partners.
UniProt O14842, whole entry: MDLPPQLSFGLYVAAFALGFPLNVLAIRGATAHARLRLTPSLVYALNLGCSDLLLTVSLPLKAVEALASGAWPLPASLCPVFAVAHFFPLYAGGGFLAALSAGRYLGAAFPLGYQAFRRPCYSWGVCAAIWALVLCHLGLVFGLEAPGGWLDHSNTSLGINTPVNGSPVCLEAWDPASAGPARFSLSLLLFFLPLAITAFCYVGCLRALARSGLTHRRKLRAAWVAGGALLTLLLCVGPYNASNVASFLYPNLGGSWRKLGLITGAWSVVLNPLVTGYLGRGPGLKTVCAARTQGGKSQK

target: hGPR40 (Homo sapiens, UniProt O14842); test: Calcium Flux Primary Assay (FLIPR, Calcium 4 Dye); format: cell-based; design: expressed in transfected cells; host or cells: HEK293; conditions: HEK293 cells over expressing human GPR40; Mean±SEM
Experimental: HEK293 cells over expressing the human GPR40 cDNA maintained in Dulbecco's modified Eagle's medium with F12 medium in 3:1 ratio supplemented with 10% FBS and 800 μg/ml geneticin at 37° C. and 5% CO2 are employed for the study. Agonist assays are performed using a Calcium 4 Dye assay kit (Molecular Devices) in the presence or absence of 0.1% fatty acid free BSA in the assay buffer (1×HBSS (Hank's Balanced Salt Solution) & 20 mM HEPES (4-(2-hydroxyethyl)-1-piperazineethanesulfonic acid). Receptor activation is measured as an increase in intracellular calcium using the Fluorometric Imaging Plate Reader (FLIPR). Maximum change in fluorescence over the base line is used to determine the agonist response. The EC50 value of the compound is calculated using Excel Fit software (version 4; IDBS) by plotting concentration vs relative fluorescence units (RFUs).

SMILES	EC50
CC#C[C@@H](CC(=O)O)c1ccc(OCc2cc(-c3ccc(C(C)(C)C#N)cc3)cn3ncnc23)cc1 [Example 19, (S)-3-(4-{6-[4-(Cyano-dimethyl-methyl)-phenyl]-[1,2,4]triazolo[1,5-a]pyridin-8-ylmethoxy}-phenyl)-hex-4-ynoic acid]	< 500 nM
CC#C[C@@H](CC(=O)O)c1ccc(OCc2cc(-c3ccc(OCCC(C)(C)O)cc3C)cn3ncnc23)cc1 [Example 8, (S)-3-(4-{6-[4-(3-Hydroxy-3-methyl-butoxy)-2-methyl-phenyl]-[1,2,4]triazolo[1,5-a]pyridin-8-ylmethoxy}-phenyl)-hex-4-ynoic acid]	< 500 nM
CC#C[C@@H](CC(=O)O)c1ccc(OCc2cc(-c3ccc(OC)cc3C)cn3ncnc23)cc1 [Example 4, (S)-3-{4-[6-(4-Methoxy-2-methyl-phenyl)-[1,2,4]triazolo[1,5-a]pyridin-8-ylmethoxy]-phenyl}-hex-4-ynoic acid]	< 500 nM
CC#C[C@@H](CC(=O)O)c1ccc(OCc2cc(-c3ccc(C#N)cc3)cn3ncnc23)cc1 [Example 13, (S)-3-{4-[6-(4-Cyano-phenyl)-[1,2,4]triazolo[1,5-a]pyridin-8-ylmethoxy]-phenyl}-hex-4-ynoic acid]	< 500 nM
CC#C[C@@H](CC(=O)O)c1ccc(OCc2cc(-c3cc(Cl)ccc3C)cn3ncnc23)cc1 [Example 12]	< 500 nM
CC#C[C@@H](CC(=O)O)c1ccc(OCc2cc(-c3ccc(C(F)F)cc3)cn3ncnc23)cc1 [Example 15, (S)-3-{4-[6-(4-Difluoromethyl-phenyl)-[1,2,4]triazolo[1,5-a]pyridin-8-ylmethoxy]-phenyl}-hex-4-ynoic acid]	< 500 nM
CC#C[C@@H](CC(=O)O)c1ccc(OCc2cc(-c3ccc(OC(F)F)cc3C)cn3ncnc23)cc1 [Example 20, (S)-3-{4-[6-(4-Difluoromethoxy-2-methyl-phenyl)-[1,2,4]triazolo[1,5-a]pyridin-8-ylmethoxy]-phenyl}-hex-4-ynoic acid]	< 500 nM
CC#C[C@@H](CC(=O)O)c1ccc(OCc2cc(-c3ccc(OCC#N)cc3C)cn3ncnc23)cc1 [Example 16, (S)-3-{4-[6-(4-Cyanomethoxy-2-methyl-phenyl)-[1,2,4]triazolo[1,5-a]pyridin-8-ylmethoxy]-phenyl}-hex-4-ynoic acid]	< 500 nM
CC#C[C@@H](CC(=O)O)c1ccc(OCc2cc(-c3cc(OC)ccc3F)cn3ncnc23)cc1 [Example 6]	< 500 nM
CC#C[C@@H](CC(=O)O)c1ccc(OCc2cc(-c3c(C)cccc3C)cn3ncnc23)cc1 [Example 11, (S)-3-{4-[6-(2,6-Dimethyl-phenyl)-[1,2,4]triazolo[1,5-a]pyridin-8-ylmethoxy]-phenyl}-hex-4-ynoic acid]	< 500 nM
CC#C[C@@H](CC(=O)O)c1ccc(OCc2cc(-c3c(C)cc(OC)cc3C)cn3ncnc23)cc1 [Example 5, (S)-3-{4-[6-(4-Methoxy-2,6-dimethyl-phenyl)-[1,2,4]triazolo[1,5-a]pyridin-8-ylmethoxy]-phenyl}-hex-4-ynoic acid]	< 500 nM
CC#C[C@@H](CC(=O)O)c1ccc(OCc2cc(-c3c(C)cccc3F)cn3ncnc23)cc1 [Example 3, (S)-3-{4-[6-(2-Fluoro-6-methyl-phenyl)-[1,2,4]triazolo[1,5-a]pyridin-8-ylmethoxy]-phenyl}-hex-4-ynoic acid]	< 500 nM
CC#C[C@@H](CC(=O)O)c1ccc(OCc2cc(-c3ccc(S(N)(=O)=O)cc3C)cn3ncnc23)cc1 [Example 18, (S)-3-{4-[6-(2-Methyl-4-sulfamoyl-phenyl)-[1,2,4]triazolo[1,5-a]pyridin-8-ylmethoxy]-phenyl}-hex-4-ynoic acid]	< 500 nM
CC#C[C@@H](CC(=O)O)c1ccc(OCc2cc(-c3ccc(C(C)C)cc3)cn3ncnc23)cc1 [Example 9, (S)-3-{4-[6-(4-Isopropyl-phenyl)-[1,2,4]triazolo[1,5-a]pyridin-8-ylmethoxy]-phenyl}-hex-4-ynoic acid]	< 500 nM
CC#C[C@@H](CC(=O)O)c1ccc(OCc2cc(-c3ccc(OC)cc3)cn3ncnc23)cc1 [Example 2, (S)-3-{4-[6-(4-Methoxy-phenyl)-[1,2,4]triazolo[1,5-a]pyridin-8-ylmethoxy]-phenyl}-hex-4-ynoic acid]	< 500 nM
CC#C[C@@H](CC(=O)O)c1ccc(OCc2cc(-c3ccc(S(C)(=O)=O)cc3)cn3ncnc23)cc1 [Example 17]	< 500 nM
CC#C[C@@H](CC(=O)O)c1ccc(OCc2cc(-c3ccc(OCCCS(C)(=O)=O)cc3C)cn3ncnc23)cc1 [Example 7, (S)-3-(4-{6-[4-(3-Methanesulfonyl-propoxy)-2-methyl-phenyl]-[1,2,4]triazolo[1,5-a]pyridin-8-ylmethoxy}-phenyl)-hex-4-ynoic acid]	< 500 nM
